PubChem BioAssay AID1224830 | NIAID, 2016

Test: 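Genes whose knock-down alters the TNF-alpha reporter response to LPS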 (primary screen)
Cell system: human THP-1 monocytic leukaemia cells, TNF dual-luciferase reporter clone, PMA-differentiated to macrophage-like cells
Reagent: siRNA pool against human genes, 50 nM
Duration: LPS for 4 h, given about 3 days after siRNA transfection
Conditions: bacterial LPS (TLR4 ligand), 10 ng/ml
Measurement: 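TNF firefly reporter luminescence divided by renilla, normalised to the plate median, then turned into a robust z-score for each replicate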
Reading the numbers: TNF reporter robust z-score: higher = stronger TNF reporter response to LPS
Active means: 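a well is active when its z-score exceeds 2.8 or falls below -1.5; control wells carry no call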
The whole screen tested about 18,000 reagents; shown is a part drawn at random. About 2,900 of them (16%) were called active. 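Calls are made per well; low scores hint the gene aids the LPS response, high scores that it dampens it.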 Repeated entries: four replicate wells of each siRNA pool.

Gene | TNF reporter robust z-score | Outcome
CD1E | -0.28 | inactive
CD1E | -0.48 | inactive
CD1E | -0.47 | inactive
CD1E | -0.31 | inactive
SULF1 | 0.47 | inactive
SULF1 | 0.16 | inactive
SULF1 | 0.18 | inactive
SULF1 | 2.72 | inactive
LINGO4 | 0.59 | inactive
LINGO4 | 2.06 | inactive
LINGO4 | -0.64 | inactive
LINGO4 | -0.09 | inactive
CFC1B | -1.5 | inactive
CFC1B | -1.2 | inactive
CFC1B | -1.04 | inactive
CFC1B | -1.37 | inactive
NPHP3 | -0.03 | inactive
NPHP3 | 1.05 | inactive
NPHP3 | 0.26 | inactive
NPHP3 | 0.56 | inactive
ECI2 | -1.23 | inactive
ECI2 | -0.52 | inactive
ECI2 | -0.21 | inactive
ECI2 | -0.16 | inactive
ARHGAP21 | -0.61 | inactive
ARHGAP21 | -0.78 | inactive
ARHGAP21 | -0.25 | inactive
ARHGAP21 | -0.53 | inactive

The listing continues.
Gene | TNF reporter robust z-score | Outcome
CEP120 | 2.68 | inactive
CEP120 | 1.79 | inactive
CEP120 | 1.12 | inactive
CEP120 | 1.33 | inactive
RHBDD3 | 0.28 | inactive
RHBDD3 | 0.09 | inactive
RHBDD3 | 0.52 | inactive
RHBDD3 | -0.2 | inactive
NUB1 | 1.25 | inactive
NUB1 | 0.62 | inactive
NUB1 | 2.23 | inactive
NUB1 | 0.68 | inactive
CLCC1 | -0.33 | inactive
CLCC1 | 0.02 | inactive
CLCC1 | -0.47 | inactive
CLCC1 | 0 | inactive
APRT | -1.41 | inactive
APRT | -0.81 | inactive
APRT | -0.56 | inactive
APRT | -0.66 | inactive
